Values of other authors as cited in US20120107391A1, “THERAPY OF PLATINUM-RESISTANT CANCER” (Genentech, Inc., priority 2004, published 2012).
Some entries share one result that the patent states for a list of compounds.

Tested on: platinum-resistant ovarian cancer
Conditions: patients with platinum-resistant disease; cited from earlier work

In the case of `CC[C@@]1(O)C(=O)OCc2c1cc1n(c2=O)Cc2cc3c(CN(C)C)c(O)ccc3nc2-1` [Topotecan], the median progression-free survival is given as 14-18 weeks.
